# Data published in the supplement of paper PMC12067093, “Discovery and optimisation of a covalent ligand for TRIM25 and its application to targeted protein ubiquitination” (Chemical Science, 2025).
# Amino acid sequences for entries named in this document (tags omitted). A change or cut given only in a name is not applied to a line headed by its entry.
# UniProt Q6NXR4: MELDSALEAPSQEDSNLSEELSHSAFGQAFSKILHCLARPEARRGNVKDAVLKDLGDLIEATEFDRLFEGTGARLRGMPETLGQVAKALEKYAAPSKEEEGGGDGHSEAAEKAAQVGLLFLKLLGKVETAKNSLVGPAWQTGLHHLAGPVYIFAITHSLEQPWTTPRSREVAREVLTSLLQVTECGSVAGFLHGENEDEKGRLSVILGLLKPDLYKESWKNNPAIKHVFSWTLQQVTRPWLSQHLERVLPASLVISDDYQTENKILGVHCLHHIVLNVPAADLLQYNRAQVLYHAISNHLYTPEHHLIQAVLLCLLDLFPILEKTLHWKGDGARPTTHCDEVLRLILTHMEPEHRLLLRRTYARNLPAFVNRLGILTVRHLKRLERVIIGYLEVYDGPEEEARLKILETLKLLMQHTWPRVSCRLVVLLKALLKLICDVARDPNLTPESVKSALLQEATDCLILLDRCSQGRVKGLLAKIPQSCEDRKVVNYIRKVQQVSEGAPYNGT
# This is one part of the list.
# Target: TTI2_Q6NXR4_270_ILGVHCLHHIVLNVPAADLLQYNR (UniProt Q6NXR4)
# Experiment: probe-labelled cysteine peptide fold change vs DMSO (competition) (log2 fold change); higher = less target engagement (more negative = stronger competition)
# Conditions: THP-1, incubation time: 4 h
# 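Also: competitive chemoproteomic profiling in live THP-1 cells with an iodoacetamide desthiobiotin (IA-DTB) probe, comparing probe-labelled peptide intensities in compound-treated cells against DMSO-treated controls.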
smiles,measurement,setting,value
CC1Cc2ccccc2N1C(=O)C1CCCN(C(=O)CCl)C1 (mixture of isomers) [TRIM25 ligand 11 (diastereomer mixture)],probe-labelled cysteine peptide fold change,10 µM,0.0973
same,probe-labelled cysteine peptide fold change,50 µM,0.314
